{
  "sequences": {"note": "Amino acid sequences for entries named in this document (tags omitted). A change or cut given only in a name is not applied to a line headed by its entry.", "UniProt O75347": "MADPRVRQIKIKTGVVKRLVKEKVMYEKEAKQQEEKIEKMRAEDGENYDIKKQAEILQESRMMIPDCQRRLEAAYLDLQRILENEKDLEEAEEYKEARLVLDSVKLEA", "UniProt P02787, whole entry, looked up": "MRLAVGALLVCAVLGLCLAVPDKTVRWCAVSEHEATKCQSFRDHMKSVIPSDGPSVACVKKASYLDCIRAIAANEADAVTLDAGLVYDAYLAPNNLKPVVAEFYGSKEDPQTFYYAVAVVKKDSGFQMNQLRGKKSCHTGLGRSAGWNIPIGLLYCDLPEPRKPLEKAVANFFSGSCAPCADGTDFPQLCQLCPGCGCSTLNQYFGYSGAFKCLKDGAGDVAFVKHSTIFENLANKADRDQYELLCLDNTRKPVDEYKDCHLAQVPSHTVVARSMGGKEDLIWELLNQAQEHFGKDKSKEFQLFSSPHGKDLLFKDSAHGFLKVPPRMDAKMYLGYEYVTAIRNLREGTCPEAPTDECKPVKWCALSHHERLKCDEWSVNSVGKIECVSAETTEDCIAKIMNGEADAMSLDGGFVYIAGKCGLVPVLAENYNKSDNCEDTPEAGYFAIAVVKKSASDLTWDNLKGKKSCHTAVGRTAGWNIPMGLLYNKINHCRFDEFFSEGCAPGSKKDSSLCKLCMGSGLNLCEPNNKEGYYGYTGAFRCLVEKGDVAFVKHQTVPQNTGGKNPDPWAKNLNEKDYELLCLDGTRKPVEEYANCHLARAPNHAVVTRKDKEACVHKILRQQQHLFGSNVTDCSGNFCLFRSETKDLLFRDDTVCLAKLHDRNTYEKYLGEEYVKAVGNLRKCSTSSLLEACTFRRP", "UniProt A6NFQ2": "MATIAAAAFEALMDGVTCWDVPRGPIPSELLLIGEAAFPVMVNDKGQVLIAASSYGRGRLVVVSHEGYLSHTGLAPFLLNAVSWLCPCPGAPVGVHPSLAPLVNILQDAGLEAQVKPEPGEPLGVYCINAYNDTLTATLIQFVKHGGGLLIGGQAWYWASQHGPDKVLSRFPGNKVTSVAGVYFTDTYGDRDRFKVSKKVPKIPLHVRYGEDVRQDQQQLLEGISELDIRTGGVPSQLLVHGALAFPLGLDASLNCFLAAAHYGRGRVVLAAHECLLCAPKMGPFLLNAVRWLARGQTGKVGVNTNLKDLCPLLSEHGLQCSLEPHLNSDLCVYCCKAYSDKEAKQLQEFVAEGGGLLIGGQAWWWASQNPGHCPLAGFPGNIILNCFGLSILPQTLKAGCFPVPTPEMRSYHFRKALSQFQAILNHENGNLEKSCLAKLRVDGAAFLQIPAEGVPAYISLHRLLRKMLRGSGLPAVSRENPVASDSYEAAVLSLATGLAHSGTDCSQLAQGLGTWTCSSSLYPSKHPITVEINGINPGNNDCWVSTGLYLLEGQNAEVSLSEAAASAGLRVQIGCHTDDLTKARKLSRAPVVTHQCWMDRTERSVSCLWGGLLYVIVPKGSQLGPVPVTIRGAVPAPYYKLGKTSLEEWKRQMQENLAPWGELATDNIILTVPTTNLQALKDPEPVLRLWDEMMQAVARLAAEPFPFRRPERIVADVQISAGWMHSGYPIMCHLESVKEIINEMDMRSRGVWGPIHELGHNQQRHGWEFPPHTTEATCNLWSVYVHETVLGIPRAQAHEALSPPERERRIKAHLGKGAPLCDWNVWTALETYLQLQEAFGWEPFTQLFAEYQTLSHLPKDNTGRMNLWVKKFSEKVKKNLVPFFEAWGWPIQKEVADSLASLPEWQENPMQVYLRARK", "UniProt Q9NXF1": "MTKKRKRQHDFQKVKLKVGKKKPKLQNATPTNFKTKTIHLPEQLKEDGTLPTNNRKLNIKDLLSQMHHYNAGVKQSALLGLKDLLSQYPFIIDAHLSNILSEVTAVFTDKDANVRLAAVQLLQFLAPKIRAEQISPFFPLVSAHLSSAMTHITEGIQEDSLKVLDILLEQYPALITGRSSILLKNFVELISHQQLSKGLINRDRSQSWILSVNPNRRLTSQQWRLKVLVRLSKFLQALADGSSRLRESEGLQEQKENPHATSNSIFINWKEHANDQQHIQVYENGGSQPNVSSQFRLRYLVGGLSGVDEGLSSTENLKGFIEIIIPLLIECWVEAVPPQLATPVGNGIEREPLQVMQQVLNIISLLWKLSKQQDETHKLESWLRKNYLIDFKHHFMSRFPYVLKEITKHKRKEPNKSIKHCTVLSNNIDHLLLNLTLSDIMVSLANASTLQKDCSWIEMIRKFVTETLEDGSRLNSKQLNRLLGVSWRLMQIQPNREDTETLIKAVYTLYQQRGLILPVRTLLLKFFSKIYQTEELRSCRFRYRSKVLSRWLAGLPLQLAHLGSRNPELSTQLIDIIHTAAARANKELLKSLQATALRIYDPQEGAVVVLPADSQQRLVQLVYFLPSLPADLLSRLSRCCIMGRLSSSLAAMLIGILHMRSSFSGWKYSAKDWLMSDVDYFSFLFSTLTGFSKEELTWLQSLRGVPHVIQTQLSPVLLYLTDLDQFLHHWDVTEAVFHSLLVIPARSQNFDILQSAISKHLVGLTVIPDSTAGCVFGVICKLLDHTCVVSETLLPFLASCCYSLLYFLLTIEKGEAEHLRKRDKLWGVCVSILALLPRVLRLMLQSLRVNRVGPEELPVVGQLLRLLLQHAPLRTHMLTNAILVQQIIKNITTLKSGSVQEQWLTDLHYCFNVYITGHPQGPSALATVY", "UniProt Q9NUW8, whole entry, looked up": "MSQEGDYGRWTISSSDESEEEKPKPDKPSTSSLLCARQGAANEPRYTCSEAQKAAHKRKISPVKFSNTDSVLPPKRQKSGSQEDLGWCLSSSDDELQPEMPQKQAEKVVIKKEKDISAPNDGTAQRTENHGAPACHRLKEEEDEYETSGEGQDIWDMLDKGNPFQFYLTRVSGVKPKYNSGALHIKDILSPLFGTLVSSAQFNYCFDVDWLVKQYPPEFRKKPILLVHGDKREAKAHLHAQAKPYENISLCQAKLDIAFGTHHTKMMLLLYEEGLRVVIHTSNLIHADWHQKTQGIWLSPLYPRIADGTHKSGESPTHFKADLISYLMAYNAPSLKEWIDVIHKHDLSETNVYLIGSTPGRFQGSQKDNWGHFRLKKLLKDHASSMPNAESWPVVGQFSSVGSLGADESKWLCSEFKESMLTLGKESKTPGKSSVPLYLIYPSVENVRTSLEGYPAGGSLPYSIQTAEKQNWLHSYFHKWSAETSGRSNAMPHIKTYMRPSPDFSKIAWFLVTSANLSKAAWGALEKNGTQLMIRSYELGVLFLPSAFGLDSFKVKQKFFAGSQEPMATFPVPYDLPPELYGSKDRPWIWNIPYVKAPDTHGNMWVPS", "UniProt Q8TC07": "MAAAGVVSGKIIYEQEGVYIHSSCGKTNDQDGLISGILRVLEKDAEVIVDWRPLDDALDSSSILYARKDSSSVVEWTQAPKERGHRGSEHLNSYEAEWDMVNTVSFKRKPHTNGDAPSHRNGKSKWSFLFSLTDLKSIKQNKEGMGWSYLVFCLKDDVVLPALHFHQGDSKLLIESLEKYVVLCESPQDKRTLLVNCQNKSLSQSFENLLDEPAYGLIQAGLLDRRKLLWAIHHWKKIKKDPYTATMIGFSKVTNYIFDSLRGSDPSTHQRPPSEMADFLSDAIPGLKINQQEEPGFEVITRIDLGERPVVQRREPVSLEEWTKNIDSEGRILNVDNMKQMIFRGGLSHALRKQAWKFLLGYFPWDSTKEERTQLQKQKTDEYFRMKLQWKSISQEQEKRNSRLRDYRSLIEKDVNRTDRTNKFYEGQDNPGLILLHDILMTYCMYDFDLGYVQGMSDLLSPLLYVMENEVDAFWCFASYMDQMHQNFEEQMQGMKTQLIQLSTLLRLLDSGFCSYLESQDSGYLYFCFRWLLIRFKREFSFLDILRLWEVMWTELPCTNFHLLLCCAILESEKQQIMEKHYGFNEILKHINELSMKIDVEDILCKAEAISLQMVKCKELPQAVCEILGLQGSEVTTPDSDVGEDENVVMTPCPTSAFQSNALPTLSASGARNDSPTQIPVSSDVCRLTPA", "UniProt Q9H7E2": "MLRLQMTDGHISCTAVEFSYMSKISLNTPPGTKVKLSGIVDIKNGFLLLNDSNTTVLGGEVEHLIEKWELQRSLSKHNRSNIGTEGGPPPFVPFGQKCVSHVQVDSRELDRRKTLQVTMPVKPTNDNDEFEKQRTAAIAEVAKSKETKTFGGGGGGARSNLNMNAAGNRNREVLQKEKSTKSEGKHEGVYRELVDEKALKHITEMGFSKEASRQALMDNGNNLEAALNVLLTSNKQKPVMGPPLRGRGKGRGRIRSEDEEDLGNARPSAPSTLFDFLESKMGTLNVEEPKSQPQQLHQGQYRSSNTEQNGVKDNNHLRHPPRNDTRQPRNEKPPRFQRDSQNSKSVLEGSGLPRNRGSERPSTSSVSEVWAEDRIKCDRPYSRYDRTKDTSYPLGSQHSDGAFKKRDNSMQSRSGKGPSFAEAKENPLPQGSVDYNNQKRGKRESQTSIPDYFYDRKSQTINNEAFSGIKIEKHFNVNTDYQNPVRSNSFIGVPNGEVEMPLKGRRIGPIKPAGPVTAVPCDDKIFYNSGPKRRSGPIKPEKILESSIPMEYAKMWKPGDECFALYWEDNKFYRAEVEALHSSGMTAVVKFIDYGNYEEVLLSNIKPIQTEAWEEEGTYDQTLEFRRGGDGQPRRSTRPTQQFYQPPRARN", "UniProt Q9Y6J9": "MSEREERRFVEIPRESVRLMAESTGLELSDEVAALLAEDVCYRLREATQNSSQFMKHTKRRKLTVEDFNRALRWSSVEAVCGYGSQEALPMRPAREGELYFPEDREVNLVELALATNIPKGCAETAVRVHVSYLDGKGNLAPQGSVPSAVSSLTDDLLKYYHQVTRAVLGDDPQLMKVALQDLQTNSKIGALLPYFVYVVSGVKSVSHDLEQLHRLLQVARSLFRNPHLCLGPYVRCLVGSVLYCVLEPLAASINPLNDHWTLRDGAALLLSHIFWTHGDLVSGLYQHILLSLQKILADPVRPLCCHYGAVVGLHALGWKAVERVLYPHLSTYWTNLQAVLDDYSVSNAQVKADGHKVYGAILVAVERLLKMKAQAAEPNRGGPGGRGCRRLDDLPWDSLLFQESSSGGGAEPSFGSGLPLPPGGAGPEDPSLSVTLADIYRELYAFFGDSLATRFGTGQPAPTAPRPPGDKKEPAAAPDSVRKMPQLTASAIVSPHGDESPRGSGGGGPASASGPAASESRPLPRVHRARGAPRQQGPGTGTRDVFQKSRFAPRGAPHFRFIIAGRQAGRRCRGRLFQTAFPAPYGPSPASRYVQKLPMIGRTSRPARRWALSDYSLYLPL", "UniProt Q66K14, whole entry, looked up": "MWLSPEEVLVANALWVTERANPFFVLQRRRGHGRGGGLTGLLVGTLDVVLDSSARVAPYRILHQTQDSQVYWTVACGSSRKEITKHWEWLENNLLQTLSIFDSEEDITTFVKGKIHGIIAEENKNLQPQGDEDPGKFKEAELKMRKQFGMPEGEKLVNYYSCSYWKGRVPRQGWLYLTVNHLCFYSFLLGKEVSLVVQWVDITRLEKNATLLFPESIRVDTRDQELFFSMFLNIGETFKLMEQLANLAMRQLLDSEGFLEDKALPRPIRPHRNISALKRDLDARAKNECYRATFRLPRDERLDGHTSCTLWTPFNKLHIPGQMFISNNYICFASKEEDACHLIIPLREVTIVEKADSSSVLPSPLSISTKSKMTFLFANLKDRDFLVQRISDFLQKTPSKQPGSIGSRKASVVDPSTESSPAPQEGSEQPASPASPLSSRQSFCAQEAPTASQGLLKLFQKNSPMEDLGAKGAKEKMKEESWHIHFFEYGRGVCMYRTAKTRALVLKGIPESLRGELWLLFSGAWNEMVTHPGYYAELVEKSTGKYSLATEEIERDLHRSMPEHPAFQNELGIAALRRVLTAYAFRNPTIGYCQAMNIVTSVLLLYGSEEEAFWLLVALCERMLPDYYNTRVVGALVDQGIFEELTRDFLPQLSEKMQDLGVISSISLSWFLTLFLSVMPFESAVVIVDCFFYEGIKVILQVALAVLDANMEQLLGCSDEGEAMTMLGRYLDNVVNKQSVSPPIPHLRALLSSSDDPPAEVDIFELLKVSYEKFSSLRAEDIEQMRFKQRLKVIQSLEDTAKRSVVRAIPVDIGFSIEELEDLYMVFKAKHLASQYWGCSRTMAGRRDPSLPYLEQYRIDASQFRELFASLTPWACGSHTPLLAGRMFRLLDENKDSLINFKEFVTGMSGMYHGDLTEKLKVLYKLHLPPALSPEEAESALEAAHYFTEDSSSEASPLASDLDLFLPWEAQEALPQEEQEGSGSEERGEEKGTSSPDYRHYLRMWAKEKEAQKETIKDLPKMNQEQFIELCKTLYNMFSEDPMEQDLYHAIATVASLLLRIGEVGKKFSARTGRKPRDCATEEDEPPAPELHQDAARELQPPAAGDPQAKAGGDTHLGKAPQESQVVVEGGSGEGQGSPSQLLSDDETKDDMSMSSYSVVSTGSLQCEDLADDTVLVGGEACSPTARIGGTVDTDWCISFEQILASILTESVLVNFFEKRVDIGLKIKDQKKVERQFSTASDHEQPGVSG"},
  "source": "the supplement of paper PMC10849652",
  "note": "The other results are listed elsewhere or left out.",
  "data": [
    {"compound": "CC1=C(C=C(C=C1)NC(=O)C2=CC(=CC=C2)N(C)C)NC(=O)C3=CC=C(C=C3)O", "experiment": "log2 fold change, soluble protein after heating vs DMSO (PISA); higher = thermal stabilisation; K562 lysate, 10 uM; active = over 0.2 and 3.5 SD of the protein, either way, in both replicates (recomputed)", "outline": "(§1)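 Log-two fold change in thermal stability relative to solvent controls is reported from duplicates. For each sample, crude K562 extract from dounce-homogenised pellets in PBS pH 7.4 with 1 mM MgCl2, at 1 mg/mL protein, was treated with 10 μM compound for 30 min. Aliquots heated for 3 min across 48°C-58°C were pooled, brought to 0.5% NP-40 at 4°C and cleared at 21,000xg for 90 min. The supernatant was quantified by TMTpro 16plex LC-MS/MS with channel sums equalised.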", "values": [
      {"target": "TBCC (UniProt Q15814)", "log2 fold change": "inactive: 0.008"},
      {"target": "TFDP2 (UniProt Q14188)", "log2 fold change": "inactive: -0.227"},
      {"target": "TERF2IP (UniProt Q9NYB0)", "log2 fold change": "inactive: -0.005"},
      {"target": "TAMM41 isoform 3 (UniProt Q96BW9)", "log2 fold change": "inactive: 0.001"},
      {"target": "TBC1D17 (UniProt Q9HA65)", "log2 fold change": "inactive: -0.016"},
      {"target": "TARS1 (UniProt P26639)", "log2 fold change": "inactive: -0.016"},
      {"target": "TBCA (UniProt O75347)", "log2 fold change": "inactive: -0.01"}
    ]},
    {"compound": "CC1=CC=C(C=C1)SC2=C3C=C(SC3=CN=C2)C(=O)N", "experiment": "log2 fold change, soluble protein after heating vs DMSO (PISA); higher = thermal stabilisation; K562 lysate, 10 uM; active = over 0.2 and 3.5 SD of the protein, either way, in both replicates (recomputed)", "outline": "as §1", "values": [
      {"target": "TBL1XR1 (UniProt Q9BZK7)", "log2 fold change": "inactive: -0.023"},
      {"target": "TBC1D22B (UniProt Q9NU19)", "log2 fold change": "inactive: -0.021"},
      {"target": "TF (UniProt P02787)", "log2 fold change": "inactive: 0.008"},
      {"target": "TCAF2 (UniProt A6NFQ2)", "log2 fold change": "inactive: 0.063"},
      {"target": "TBC1D22A (UniProt Q8WUA7)", "log2 fold change": "inactive: -0.032"},
      {"target": "TEX10 (UniProt Q9NXF1)", "log2 fold change": "inactive: 0.013"},
      {"target": "TBC1D10A (UniProt Q9BXI6)", "log2 fold change": "inactive: 0.003"},
      {"target": "TALDO1 (UniProt P37837)", "log2 fold change": "inactive: 0.024"},
      {"target": "TDP1 (UniProt Q9NUW8)", "log2 fold change": "inactive: -0.017"},
      {"target": "TEX30 (UniProt Q5JUR7)", "log2 fold change": "inactive: 0.019"},
      {"target": "TCEA1 (UniProt P23193)", "log2 fold change": "inactive: -0.015"},
      {"target": "TFAM (UniProt Q00059)", "log2 fold change": "inactive: 0.031"},
      {"target": "TARBP2 (UniProt Q15633)", "log2 fold change": "inactive: -0.015"},
      {"target": "TCP1 (UniProt P17987)", "log2 fold change": "inactive: 0.01"},
      {"target": "TAL1 (UniProt P17542)", "log2 fold change": "inactive: 0.017"},
      {"target": "TBRG4 (UniProt Q969Z0)", "log2 fold change": "inactive: -0.023"},
      {"target": "TBC1D15 isoform 3 (UniProt Q8TC07)", "log2 fold change": "inactive: 0.017"},
      {"target": "TDRD3 isoform 3 (UniProt Q9H7E2)", "log2 fold change": "inactive: 0.026"},
      {"target": "TAPT1 (UniProt Q6NXT6)", "log2 fold change": "inactive: -0.027"},
      {"target": "TFDP1 (UniProt Q14186)", "log2 fold change": "inactive: 0.006"},
      {"target": "TAF6L (UniProt Q9Y6J9)", "log2 fold change": "inactive: -0.009"},
      {"target": "TBC1D9B isoform 2 (UniProt Q66K14)", "log2 fold change": "inactive: -0.018"},
      {"target": "TFR2 (UniProt Q9UP52)", "log2 fold change": "inactive: -0.026"},
      {"target": "TBCC (UniProt Q15814)", "log2 fold change": "inactive: -0.008"},
      {"target": "TFDP2 (UniProt Q14188)", "log2 fold change": "inactive: 0.059"},
      {"target": "TERF2IP (UniProt Q9NYB0)", "log2 fold change": "inactive: 0.003"},
      {"target": "TAMM41 isoform 3 (UniProt Q96BW9)", "log2 fold change": "inactive: 0.056"},
      {"target": "TBC1D17 (UniProt Q9HA65)", "log2 fold change": "inactive: 0.019"},
      {"target": "TARS1 (UniProt P26639)", "log2 fold change": "inactive: 0.01"},
      {"target": "TBCA (UniProt O75347)", "log2 fold change": "inactive: -0.001"}
    ]}
  ]
}
